Data: PubChem BioAssay AID624291 (National Center for Advancing Translational Sciences (NCATS), 2012)
The whole screen tested about 350,000 compounds, of which about 220 (0.063%) were called active. Inconclusive means that the source gave no clear call. Such entries were picked first, then a sample of the others. The call rests on the fitted dose curve; in most records, active means well fitted activation curve with a large enough effect; inconclusive means small, poorly fitted or top-dose-only effect; inactive means no such curve, though single readings can be large or run the other way. Potencies beside an inconclusive call are fits to weak or partial responses and may not hold up.

Experiment: qHTS for Activators of Integrin-Mediated Alleviation for Muscular Dystrophy; further: nearly all actives have a fitted effect of over 60% in size
Conditions: alpha7betagal myoblasts, beta-gal FDG fluorescence, 48 h; series mostly up to 38.3 µM
Summary of the method: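 Alpha7betagal+/- myoblasts (passage 13) were plated 16-24 hr, then exposed to compounds (1:260 dilution of DMSO stock) for 48 hours at 37C. After MPER lysis, β-galactosidase reporter activity was read as FDG fluorescence (ex 480/em 540) after 30 minutes.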
Potency means the concentration at half of the fitted maximal effect.

Potency, inactive:
C=CCn1c(C)c(C(C)=O)c(N2CCN(C(c3ccccc3)c3ccccc3)CC2)nc1=S
Cc1cc(C)cc(NC(=S)NCCN(C2CCCCC2)C2CCCC2)c1
CC(C)/C=C/CN1CCN(CCCc2ccccc2)C(CCO)C1 (configuration not stated)
COC(=O)CSc1nc2sc(C)c(C)c2c(=O)n1C
Cc1csc(NC(=O)c2ccc(OCC3CCCO3)cc2)n1 (configuration not stated)
C=CCn1c(-c2ccc(OC)cc2)nc2ccccc21
CC1CCc2c(C(=O)OCC(=O)Nc3cccc(S(=O)(=O)N4CCCCCC4)c3)csc2C1 (configuration not stated)
CCCCN1CC(C(=O)NCc2ccc(C)cc2)CC1=O (configuration not stated)
Cc1occc1C(=O)N/N=C/C=C\c1ccccc1[N+](=O)[O-]
CCN1CCCc2cc(CN(CCN3CCOCC3)C(=S)Nc3cccc(Cl)c3)ccc21
COc1ccc(CNC(=O)c2ccc3c(c2)NC(=O)C(C)S3)cc1 (configuration not stated)
Cc1ccccc1CC1CCN(CCCNC(=O)Nc2ccccc2)CC1
Cc1ccc(Cc2cnc(NC(=O)/C(C#N)=C/c3ccc(-c4ccccc4[N+](=O)[O-])o3)s2)cc1
Brc1ccc(-c2csc(/N=C/N3CCCC3)n2)cc1
CC1CCCCN1CC(=O)c1c[nH]c2ccccc12 (configuration not stated)
NC(=S)N/N=C/c1ccc(-c2ccc([N+](=O)[O-])cc2)o1
COc1ccc(C2(CNC(=O)CCC(=O)O)CCCC2)cc1OC
COc1ccc(S(=O)(=O)N2CCN(Cc3ccccc3OC)CC2)cc1
Cc1ccc(C(O)(C(=O)NN(C(=O)c2ccccc2)c2ccccc2)c2ccc(C)cc2)cc1

Potency, inconclusive:
CC1(C)CC(NCCN2CCN(C3=CC(=C(C#N)C#N)CC(C)(C)C3)CC2)=CC(=C(C#N)C#N)C1 5.01 µM [activator, single point]
COc1ccc(C)cc1NC(=S)NNC(=O)c1c(Br)cnn1C 12.6 µM [activator, single point]
COc1cccc(-n2nnc3c(=O)n(Cc4cccc(F)c4)cnc32)c1 2.82 µM [activator, single point]
CCCC(C(=O)NC(C)(C)C)N(Cc1ccc(F)cc1)C(=O)c1snc(C(N)=O)c1N (configuration not stated) 5.01 µM [activator, single point]
Nc1cc(S(=O)(=O)N2CCOCC2)ccc1Oc1ccc(F)cc1 5.01 µM [activator, single point]
CCOc1ccc(N(C)S(=O)(=O)c2cc(-c3cc(C)no3)ccc2CC)cc1 5.01 µM [activator, single point]
CNC(CC(=O)c1ccc([N+](=O)[O-])cc1)C(Cl)(Cl)Cl (configuration not stated) 5.01 µM [activator, single point]
CS(=O)(=O)c1ccc(C(=O)Nc2ccc(N3CCOCC3)cc2)c(Cl)c1 1.78 µM [activator, single point]
Cc1ccc(C)c(NC(=O)COC(=O)CCc2ccc(S(=O)(=O)N3CCOCC3)cc2)c1 22.4 µM [activator, single point]
Cc1nc(C)c(C(=O)OCC(=O)Nc2ccccc2)s1 1.26 µM [activator, partial curve, poor fit]
Cc1ccc(C)c(OCC(=O)NCC(C)(C)N2CCOCC2)c1 5.01 µM [activator, single point]
O=C(CNCc1ccc(Cl)cc1)Nc1cccc(C(=O)O)c1 5.01 µM [activator, single point]
Cc1ccc(CNC(=O)c2nn(C)c3c2CS(=O)(=O)c2ccccc2-3)cc1 5.01 µM [activator, single point]
C=CCN1C(=O)/C(=C/c2ccsc2)SC1=S 25.1 µM [activator, single point]
Cc1cc(NC(=O)CCC(=O)N(C2CC2)C2(C(=O)NC3CCCC3)CCC(C)CC2)no1 (configuration not stated) 0.891 µM [activator, full curve, poor fit]
Cc1cc(N2C(=O)c3ccc(C(=O)Nc4ccc(O)cc4C(=O)O)cc3C2=O)no1 5.01 µM [activator, single point]
CCOc1ccc(Br)cc1S(=O)(=O)Nc1ccc(NC(=O)c2ccccc2C)cc1 2.51 µM [activator, partial curve, poor fit]
COc1ccc2c(C)nc(N/C(N)=N/S(=O)(=O)c3ccc(C)cc3)nc2c1 1.78 µM [activator, partial curve, poor fit]
Cn1c(N)c(Sc2ccc([N+](=O)[O-])cc2)c(=O)n(C)c1=O 4.47 µM [activator, partial curve, poor fit]
COc1ccc(S(=O)(=O)N2CCC(C(=O)N[C@@H](C)C(=O)NCc3ccc(F)cc3)CC2)cc1 5.01 µM [activator, single point]
O=C(NNC(=S)NCCc1ccccc1)c1ccc(Br)s1 5.01 µM [activator, single point]
COc1cc(NC(=S)NC(=O)CC(C)C)ccc1NC(=O)c1cc2ccccc2o1 4.47 µM [activator, single point]
O=C(O)/C=C/c1ccc(S(=O)(=O)Nc2ccc(OCc3ccccc3)cc2)cc1 5.01 µM [activator, single point]
Cc1cc(SC(C)C(=O)Nc2ncc(Cl)cc2Cl)nc2ccccc12 (configuration not stated) 3.55 µM [activator, single point]
O=C(CN1CCSCC1)N/N=C/c1cccc(Cl)c1 28.2 µM [activator, single point]
N#Cc1c(-c2ccccc2)cc(-c2ccccc2)nc1Br 2.82 µM [activator, partial curve, poor fit]
CN(/C(=N/S(=O)(=O)c1cccs1)c1ccccc1)c1ccccc1 0.891 µM [activator, full curve, poor fit]
NC(=O)C1(N2CCCCC2)CCN(C(=O)c2cccn3c(=O)c4cc(Cl)ccc4nc23)CC1 10 µM [activator, single point]
Cc1oc(-c2cccc(Cl)c2)nc1CN1CCC(C(=O)NC2CC2)CC1 5.01 µM [activator, single point]
CCOc1ccc(OCCOc2ccc(/C=C/C(=O)O)cc2OCC)cc1 0.501 µM [activator, full curve, poor fit]
COC(=O)c1cc(-c2ccc(OC)c(OC)c2)c2c(=O)[nH]c(=O)n(C)c2n1 28.2 µM [activator, single point]
Cc1cc(C(=O)OCC(=O)NCc2ccc(Cl)cc2)c(C)o1 1.58 µM [activator, partial curve, poor fit]
O=C(CNc1cccc(S(=O)(=O)N2CCCCCC2)c1)Nc1cccc([N+](=O)[O-])c1 5.01 µM [activator, single point]
O=Cc1c(-c2ccccc2)cc2oc3ccccc3cc1-2 0.891 µM [activator, full curve, poor fit]
CCOc1ccc(N2CC(C(=O)NNC(=O)c3ccc(F)cc3)CC2=O)cc1 (configuration not stated) 2.24 µM [activator, full curve, poor fit]
Cc1cccc(OCc2nnc(SCC(=O)N3CCCC3)o2)c1 5.62 µM [activator, single point]
COC(OC)C(C)NC(=O)NC(=O)c1ccccc1Cl (configuration not stated) 5.01 µM [activator, full curve, poor fit]
CC(C)CC(=O)NC1(C(F)(F)F)NC(=O)N(c2ccccc2)C1=O (configuration not stated) 2.51 µM [activator, partial curve, poor fit]
COC(=O)c1cc2c(C(F)(F)F)nn(C)c2s1 7.94 µM [activator, partial curve, poor fit]
CN(C)CC(C)(C)NS(=O)(=O)c1ccc(Cl)cc1 3.98 µM [activator, single point]
Cc1c(N2C(=O)CSC2c2ccccc2)c(=O)n(-c2ccccc2)n1C (configuration not stated) 5.01 µM [activator, single point]
CCCSCC(=O)Nc1ncc2c(n1)-c1ccccc1CC2 25.1 µM [activator, partial curve, poor fit]
Cc1nc2ccccc2c(=O)n1/N=C/c1cn[nH]c1-c1ccccc1 28.2 µM [activator, single point]
Cc1ccc2[nH]cc(CCNC(=O)c3ccco3)c2c1 3.16 µM [activator, single point]
CCc1nn(C(C)C(=O)N(C)Cc2ccccc2)c(=O)c2cc3occc3n12 (configuration not stated) 22.4 µM [activator, single point]
CCOc1ccc(OCCC(=O)OCC(=O)NCCc2ccc(S(N)(=O)=O)cc2)cc1 1.78 µM [activator, single point]
Cn1ncc2nc[nH]c(=O)c21 1.12 µM [activator, partial curve, poor fit]
C/C(=N\NC(=O)c1cc(Br)ccc1O)c1cccs1 1 µM [activator, partial curve, poor fit]

Three compounds already listed, arranged by molecular weight, smallest number first:
Potency, inconclusive:
O=Cc1c(-c2ccccc2)cc2oc3ccccc3cc1-2 0.891 µM [activator, full curve, poor fit]
Cc1nc(C)c(C(=O)OCC(=O)Nc2ccccc2)s1 1.26 µM [activator, partial curve, poor fit]
COc1cccc(-n2nnc3c(=O)n(Cc4cccc(F)c4)cnc32)c1 2.82 µM [activator, single point]

Nothing new here: an excerpt of the list.
Potency, inconclusive:
COc1cc(NC(=S)NC(=O)CC(C)C)ccc1NC(=O)c1cc2ccccc2o1 4.47 µM [activator, single point]
O=C(O)/C=C/c1ccc(S(=O)(=O)Nc2ccc(OCc3ccccc3)cc2)cc1 5.01 µM [activator, single point]
